# Several values for one entry are separate records, joined by “and”; a condition that tells them apart may be missing. Equal values may be shown once. Where a name gives a salt, the structure may show the parent alone. ± gives the standard deviation of the averaged measurements. The list shows a part of the results. Baselines shift from plate to plate; read single values as rough.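 Assay uses culture-activated primary human stellate myofibroblasts; lipid droplet recovery indicates inactivation. Measured: proportion of Hoechst-counted cells over a plate-specific Bodipy cutoff, duplicate wells, DMSO and nortriptyline as per-plate negative and positive controls. A hit scores, control-normalized, above the plate's top-tenth-percentile nortriptyline wells or ranks among its three best wells. Final well concentrations not reported.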
# System: primary human hepatic stellate cells (donor 1)
# Assay: percent Bodipy-positive cells; higher = more lipid droplet accumulation
# Details: 48 h
# [1] = library stock concentration: 80 uM
# [2] = library stock concentration: 400 uM
# [3] = library stock concentration: 2 mM
# [4] = library stock concentration: 10 mM
# [5] = library stock concentration: 3.33 mM
# [6] = library stock concentration: 1 mM
smiles,measurement,setting,value
NC(=O)C1CCCc2c1[nH]c1ccc(Cl)cc21 (stereo unspecified),percent Bodipy-positive cells,[1],31.3 ± 8.4%
same,percent Bodipy-positive cells,[2],34.7 ± 3.6%
same,percent Bodipy-positive cells,[3],47.5 ± 7.2%
same,percent Bodipy-positive cells,[4],41.3 ± 4.2%
CCCCc1oc2ccccc2c1C(=O)c1cc(I)c(OCCN(CC)CC)c(I)c1.Cl [Amiodarone hydrochloride],percent Bodipy-positive cells,[4],97 ± 1.7%
CO/N=C(\C(=O)N[C@@H]1C(=O)N2C(C(=O)O)=C(COC(C)=O)CS[C@H]12)c1csc(N)n1 [Cefotaxime sodium],percent Bodipy-positive cells,[4],11.9% and 30.3%
CO/N=C(\C(=O)N[C@@H]1C(=O)N2C(C(=O)O)=C(COC(C)=O)CS[C@H]12)c1csc(N)n1 [Cefotaxime sodium salt],percent Bodipy-positive cells,,27.2 ± 7%
CO/N=C(\C(=O)N[C@@H]1C(=O)N2C(C(=O)O)=C(COC(C)=O)CS[C@H]12)c1csc(N)n1 [Cefotaxime acid],percent Bodipy-positive cells,library stock concentration: 4.4 mM,7.51 ± 3.7%
CO/N=C(\C(=O)N[C@@H]1C(=O)N2C(C(=O)O)=C(COC(C)=O)CS[C@H]12)c1csc(N)n1,percent Bodipy-positive cells,[4],43.5 ± 19%
C=C[C@](C)(O)CC[C@@H]1[C@@]2(C)CCCC(C)(C)[C@@H]2CC[C@@]1(C)O [Sclareol],percent Bodipy-positive cells,[5],14.5 ± 12%
same,percent Bodipy-positive cells,[4],63.9 ± 2%
COC1CCC(C(=O)c2ccc3nc4c(cc3c2)CCCO4)CC1 (stereo unspecified),percent Bodipy-positive cells,[4],6.44 ± 3.4%
O=C(O)[C@@H]1[C@H]2C[C@H]3c4[nH]c5ccccc5c4CCN3C[C@@H]2CC[C@@H]1O [Yohimbinic acid monohydrate],percent Bodipy-positive cells,,25.7 ± 6.6%
NC(=O)N/N=C/c1ccc(Oc2ccc(F)cc2)cc1,percent Bodipy-positive cells,[4],6.35 ± 0.39%
C[C@]12CC[C@@H]3c4ccc(O)cc4C[C@@H](CCCCCCCCC[S+]([O-])CCCC(F)(F)C(F)(F)F)[C@H]3[C@@H]1CC[C@@H]2O (stereo partly specified) [Fulvestrant],percent Bodipy-positive cells,[5],9.02 ± 1.1%
C[C@]12CC[C@@H]3c4ccc(O)cc4C[C@@H](CCCCCCCCC[S+]([O-])CCCC(F)(F)C(F)(F)F)[C@H]3[C@@H]1CC[C@@H]2O (stereo partly specified),percent Bodipy-positive cells,[4],9.65 ± 4.2%
COc1cc(CNC(=O)CCCC/C=C/C(C)C)ccc1O [E-capsaicin],percent Bodipy-positive cells,[4],14.3 ± 2.1%
COc1cc(CNC(=O)CCCC/C=C/C(C)C)ccc1O [E-Capsaicin],percent Bodipy-positive cells,library stock concentration: 16.4 mM,22.2 ± 2%
COc1cc(CNC(=O)CCCC/C=C/C(C)C)ccc1O [Capsaicin],percent Bodipy-positive cells,,6.98 ± 3.3%
same,percent Bodipy-positive cells,[6],9.54 ± 1.2%
same,percent Bodipy-positive cells,[4],13.4 ± 0.65%
COc1cc(CNC(=O)CCCC/C=C/C(C)C)ccc1O [(E)-Capsaicin],percent Bodipy-positive cells,[4],6.98 ± 2.8%
Clc1ccc(C2(c3ccc(-c4cn[nH]c4)cc3)CCNCC2)cc1,percent Bodipy-positive cells,[1],44 ± 1.6%
same,percent Bodipy-positive cells,[2],64.7 ± 4.1%
same,percent Bodipy-positive cells,[4],98.3 ± 2.4%
NC1(Cc2ccc(Cl)cc2)CCN(c2ncnc3[nH]ccc23)CC1,percent Bodipy-positive cells,[5],60.5 ± 16%
"O=C(O)CCC(C(=O)O)N1C(=O)c2ccccc2C1=O [L-Glutamic acid, N-phthaloyl-]",percent Bodipy-positive cells,[4],53.1 ± 2.8%
Cc1cc(C(C)Nc2ccccc2)c2nc(N3CCOCC3)cc(=O)n2c1 (stereo unspecified),percent Bodipy-positive cells,[1],11.3 ± 4.4%
same,percent Bodipy-positive cells,[2],11.6% and 10.4%
same,percent Bodipy-positive cells,[3],19% and 18.1%
same,percent Bodipy-positive cells,[5],7.7 ± 2.4%
"Cc1cc(Nc2cc(N3CCN(C)CC3)nc(Sc3ccc(NC(=O)C4CC4)cc3)n2)n[nH]1 [VX-680 (Tozasertib, MK-0457)]",percent Bodipy-positive cells,[5],31.9 ± 0.98%
same,percent Bodipy-positive cells,[4],59.5 ± 8.2%
"Cc1cc(Nc2cc(N3CCN(C)CC3)nc(Sc3ccc(NC(=O)C4CC4)cc3)n2)n[nH]1 [Tozasertib (VX-680, MK-0457) (2 mM)]",percent Bodipy-positive cells,[3],40.8 ± 2.1%
"Cc1cc(Nc2cc(N3CCN(C)CC3)nc(Sc3ccc(NC(=O)C4CC4)cc3)n2)n[nH]1 [Tozasertib (VX-680, MK-0457) (0.4 mM)]",percent Bodipy-positive cells,[2],16.5 ± 0.17%
Cc1cc(Nc2cc(N3CCN(C)CC3)nc(Sc3ccc(NC(=O)C4CC4)cc3)n2)n[nH]1,percent Bodipy-positive cells,[1],9.86 ± 0.4%
same,percent Bodipy-positive cells,[2],16.8 ± 2%
same,percent Bodipy-positive cells,[3],35.5 ± 4.1%
same,percent Bodipy-positive cells,[4],58.9 ± 2.7%
"Cc1cc(Nc2cc(N3CCN(C)CC3)nc(Sc3ccc(NC(=O)C4CC4)cc3)n2)n[nH]1 [Tozasertib (VX-680, MK-0457) (10 mM)]",percent Bodipy-positive cells,[4],71.6 ± 6.8%
Clc1ccc2nsnc2c1NC1=NCCN1 [Tizanidine hydrochloride],percent Bodipy-positive cells,[4],18.8% and 10.4% and 24.3%
Clc1ccc2nsnc2c1NC1=NCCN1 [Tizanidine HCl],percent Bodipy-positive cells,[5],7.29 ± 6.9%
same,percent Bodipy-positive cells,library stock concentration: 7.9 mM,5.4 ± 0.33%
same,percent Bodipy-positive cells,[4],36.2 ± 2.8%
Cc1cc2cc3c(C)cc(=O)oc3c(C)c2o1 [Trioxsalen],percent Bodipy-positive cells,,8.61 ± 1.7%
same,percent Bodipy-positive cells,library stock concentration: 8.8 mM,20.2 ± 6.2%
same,percent Bodipy-positive cells,[4],37.9 ± 16%
CC(=O)Nc1c(I)cc(I)c(C(=O)O)c1I [Acetriazoic acid],percent Bodipy-positive cells,library stock concentration: 3.6 mM,11.5 ± 0.33%
same,percent Bodipy-positive cells,[4],32.5 ± 9.9%
CC(C)OC(=O)CCC/C=C/C[C@H]1C(=O)C[C@@H](O)[C@@H]1/C=C/[C@@H](O)COc1cccc(C(F)(F)F)c1 [9-keto Fluprostenol isopropyl ester],percent Bodipy-positive cells,[6],17.7 ± 3.1%
CC(=O)Nc1nnc(S(N)(=O)=O)s1,percent Bodipy-positive cells,[4],31 ± 0.98%
CC(=O)Nc1nnc(S(N)(=O)=O)s1 [Acetazolamide],percent Bodipy-positive cells,,28.6 ± 5.8%
same,percent Bodipy-positive cells,library stock concentration: 9 mM,2.05 ± 0.11%
same,percent Bodipy-positive cells,[4],11.5% and 34.7%
Nc1nc(OCc2cc(Br)cs2)c2[nH]cnc2n1 [Lomeguatrib],percent Bodipy-positive cells,[5],39.5 ± 2.4%
same,percent Bodipy-positive cells,[4],50.89 ± 0.1%
CCCCOc1ccc(C(=O)Nc2ccc(F)cc2F)cc1,percent Bodipy-positive cells,[5],33.7 ± 9.4%
same,percent Bodipy-positive cells,[4],42.1 ± 8%
CC(C)Oc1ccc2c(=O)c(-c3ccccc3)coc2c1,percent Bodipy-positive cells,[4],36.71 ± 0.33%
CC(C)Oc1ccc2c(=O)c(-c3ccccc3)coc2c1 [Ipriflavone (Osteofix)],percent Bodipy-positive cells,[5],12.7 ± 1%
same,percent Bodipy-positive cells,[4],24.1 ± 2.5%

# Fetched one by one from the list above, 4 records:
smiles,measurement,setting,value
Cc1cc(C(C)Nc2ccccc2)c2nc(N3CCOCC3)cc(=O)n2c1 (stereo unspecified),percent Bodipy-positive cells,[5],7.7 ± 2.4%
COc1cc(CNC(=O)CCCC/C=C/C(C)C)ccc1O [Capsaicin],percent Bodipy-positive cells,[4],13.4 ± 0.65%
CC(=O)Nc1c(I)cc(I)c(C(=O)O)c1I [Acetriazoic acid],percent Bodipy-positive cells,[4],32.5 ± 9.9%
Clc1ccc(C2(c3ccc(-c4cn[nH]c4)cc3)CCNCC2)cc1,percent Bodipy-positive cells,[2],64.7 ± 4.1%

# Source: the supplement of paper PMC9135407
